Laboratory results: PubChem BioAssay AID1053208 (Peter MacCallum Cancer Centre, 2014)

Aim: 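Genes whose silencing cuts survival of bone tumour cells only with doxorubicin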 (primary screen)
Cells: mouse osteosarcoma cells, early-passage culture from an engineered mouse model of fibroblastic bone tumour
Reagents: siRNA pool against mouse genes, 40 nM
Timing: about 120 h (48 h before drug, then 72 h with drug)
Challenge: doxorubicin 100 nM for 72 h, roughly 30-40% inhibitory dose
Read-out: 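Viability read as ATP luminescence after 72 h of 100 nM doxorubicin or none, duplicate wells averaged, scaled to non-targeting siRNA, then expressed as robust z-scores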
Scale: viability z-score with doxorubicin: higher = more viable cells under doxorubicin; viability z-score without drug: higher = more viable cells with knock-down alone
Call rule: 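Called active if knock-down leaves viability unchanged without drug (z within -2 to 2) but lowers it with doxorubicin (z at or under -2)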
Here is a random part of about 17,000 reagents tested. Of all reagents, 788 (4.7%) were called active. 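Calls rest on z-score classes alone; an extra cut-off of viability at most 70% of control was not applied to them.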 Unmarked entries are inactive. Reagents against one gene are numbered here. Further read-outs or replicates are left out here.

| target | reagent no. | combined z-score class | viability z-score with doxorubicin | viability z-score without drug |
| --- | --- | --- | --- | --- |
| Agtrap | 1 | no change with or without drug | -0.9 | 0.84 |
| Dyrk1a | 1 | no change with or without drug | -1.57 | -0.17 |
| D630023F18Rik | 1 | no change with or without drug | 0.22 | 1.85 |
| Arpc1b | 1 | no change with or without drug | 0.22 | 0.34 |
| D130012P04Rik | 1 | no change with or without drug | 0.67 | -0.84 |
| Defa5 | 1 | no change with or without drug | 0.11 | 0.34 |
| Mtor | 1 | low cell count with doxorubicin only (active) | -2.25 | 0.51 |
| Gbp8 | 1 | no change with or without drug | 0.45 | 0 |
| Cops7a | 1 | no change with or without drug | 0.22 | 0.17 |
| Lpcat4 | 1 | no change with or without drug | -0.22 | 0.67 |
| Gstm5 | 1 | no change with or without drug | 1.01 | -0.51 |
| Zfp329 | 1 | no change with or without drug | -0.9 | -1.52 |
| Pafah2 | 1 | no change with or without drug | 0.9 | -0.17 |
| Sema4a | 1 | low cell count without drug only | -1.57 | -2.53 |
| Gramd1b | 1 | high cell count without drug only | 0.9 | 3.37 |
| Kazn | 1 | no change with or without drug | 0.67 | 0.34 |
| Lce1f | 1 | no change with or without drug | -0.67 | 0.34 |
| Kcne5 | 1 | no change with or without drug | -0.45 | 0.51 |
| Cdhr1 | 1 | no change with or without drug | -1.57 | -0.34 |
| Dhx58 | 1 | no change with or without drug | 0.22 | 1.01 |
| Or4c102 | 1 | no change with or without drug | -1.01 | 0.51 |
| Opa3 | 1 | no change with or without drug | -0.79 | -1.18 |
| Efnb2 | 1 | no change with or without drug | 0.45 | 1.52 |
| Ikzf5 | 1 | high cell count with and without drug | 2.47 | 2.36 |
| Or8d2 | 1 | low cell count with and without drug | -2.25 | -2.87 |
| Gkap1 | 1 | no change with or without drug | 0.34 | 0.17 |
| Akr1c6 | 1 | low cell count with doxorubicin only (active) | -2.02 | -0.51 |
| B3galt4 | 1 | no change with or without drug | -1.57 | 0.34 |
| Angptl2 | 1 | low cell count without drug only | -1.8 | -2.19 |
| Ttc5 | 1 | no change with or without drug | -0.45 | 0 |
| Zfp846 | 1 | no change with or without drug | -1.46 | -0.84 |
| Hoxb6 | 1 | no change with or without drug | -1.24 | -1.01 |
| Ppip5k1 | 1 | no change with or without drug | 0.67 | 0.67 |
| Actl11 | 1 | no change with or without drug | 0.79 | 0.51 |
| Nrg4 | 1 | no change with or without drug | -0.45 | 0.34 |
| Ttll3 | 1 | no change with or without drug | -0.45 | 0 |
| Mtch1 | 1 | no change with or without drug | -0.45 | 0.67 |
| Dpp6 | 1 | no change with or without drug | 0.22 | 0.51 |
| Dpp6 | 2 | no change with or without drug | -0.45 | -0.17 |
| Cnga1 | 1 | no change with or without drug | 0.22 | -1.52 |
| Rev3l | 1 | no change with or without drug | -0.45 | -0.51 |
| Cckbr | 1 | no change with or without drug | -0.45 | 0.17 |
| Slc31a1 | 1 | high without drug; low with doxorubicin | -2.7 | 2.19 |
| Adck5 | 1 | no change with or without drug | -0.34 | 1.69 |
| Setd5 | 1 | no change with or without drug | -0.22 | -0.84 |
| Iba57 | 1 | no change with or without drug | -1.24 | 1.01 |
| Iba57 | 2 | no change with or without drug | -0.9 | 0.84 |
| Cyp19a1 | 1 | high cell count with doxorubicin only | 2.59 | 0.84 |
| Hsp90b1 | 1 | no change with or without drug | -0.11 | 0.34 |
| Ablim2 | 1 | no change with or without drug | -0.22 | -0.17 |

Part of the list above in another layout:
target | reagent no. | combined z-score class | viability z-score with doxorubicin | viability z-score without drug
Ppip5k1 | 1 | no change with or without drug | 0.67 | 0.67
Actl11 | 1 | no change with or without drug | 0.79 | 0.51
Nrg4 | 1 | no change with or without drug | -0.45 | 0.34
Ttll3 | 1 | no change with or without drug | -0.45 | 0
Mtch1 | 1 | no change with or without drug | -0.45 | 0.67
Dpp6 | 1 | no change with or without drug | 0.22 | 0.51
Dpp6 | 2 | no change with or without drug | -0.45 | -0.17
Cnga1 | 1 | no change with or without drug | 0.22 | -1.52
